From PubChem BioAssay AID540256 (National Center for Advancing Translational Sciences (NCATS), 2011)
In all, about 300,000 compounds went through this assay and about 3,700 (1.2%) were called active. Inconclusive means that the source gave no clear call. Such entries were picked first, then a sample of the others. Calls follow the shape of the full dose curve; tested in HEK293 cells. Potencies of inconclusive entries are doubtful fits and often do not repeat.

assay: qHTS for Inhibitors of binding or entry into cells for Lassa Virus; conditions: Lassa virus pseudotype entry inhibition, cell reporter; series mostly up to 37.9 µM; also: nearly all actives have a fitted effect of over 50% in size
Potency is read from the fitted curve at half-maximal effect.

SMILES	Potency
CCCC(=O)n1nc(-c2ccco2)nc1NCc1ccccc1Cl	inactive
CC1CCN(S(=O)(=O)c2ccc3c(c2)C(=NO)c2cc(S(=O)(=O)N4CCC(C)CC4)ccc2-3)CC1	active: 2.51 µM
CC1=C(C(=O)OCc2ccccc2)C(c2ccccc2)NC(=O)N1CCCCCC(=O)O (stereo not given)	inactive
COc1ccccc1OC(=O)c1ccc(SC)cc1OC	active: 10 µM
Cc1ccc(N(CC(=O)NCc2ccco2)C(=O)CCC(=O)Nc2nccs2)c(C)c1	inconclusive: 35.5 µM [activator, single point]
Cc1ccc(-n2nnc(-c3nsc(NC(=O)c4cccc(Cl)c4)n3)c2C)cc1C	inactive
O=C(CSc1n[nH]c(-c2ccccc2)n1)NCCCc1ccccc1	inactive
CCCC(=O)Nc1ccc(Cl)c(NC(=O)c2cccc(OC)c2)c1	inconclusive: 14.1 µM [inhibitor, single point]
Cc1cccc(NC(=O)c2cc(-c3ccc(C)s3)nc3ccccc23)n1	inconclusive: 11.2 µM [inhibitor, partial curve, poor fit]
COc1ccc(CN=C(C)c2c(C(F)(F)F)[nH]n(-c3nc4ccccc4s3)c2=O)cc1	inactive
COc1ccc(C(=O)NCc2nnc(SCC(=O)Nc3ccccc3)n2-c2ccccc2)cc1	inconclusive: 1.41 µM [inhibitor, full curve]
COc1ccc(NS(=O)(=O)c2cc(NC(=O)Cc3c(F)cccc3Cl)ccc2OC)cc1	inconclusive: 14.1 µM [inhibitor, single point]
COc1cccc(-c2noc(-c3cccnc3)n2)c1	inconclusive: 1.26 µM [activator, single point]
Cc1cccc(C)c1N(CC(=O)N/N=C/c1cc(Br)c(C)o1)S(C)(=O)=O	inactive
Cn1c(N=NC(=O)c2ccccc2)c(O)c2ccccc21	inconclusive: 3.16 µM [inhibitor, single point]
CN(C)c1ccsc1C(=O)NNS(=O)(=O)c1ccc(Cl)cc1	inconclusive: 35.5 µM [inhibitor, single point]
CCN(CC)S(=O)(=O)c1ccc2c(c1)nc(CCC(=O)Nc1cccc(C(F)(F)F)c1)n2CC	inconclusive: 12.6 µM [inhibitor, single point]
COc1cccc(-c2nn(-c3ccc(C)cc3)cc2C(=O)N(C)CC(=O)Nc2cccc(F)c2)c1	inconclusive: 12.6 µM [inhibitor, partial curve, poor fit]
COc1ccc(CNC(=O)CN2N=C(c3ccccc3)CCC2=O)c(OC)c1	inactive
CCN(CC)S(=O)(=O)c1ccc(N/N=C/c2cc(OC)ccc2O)nc1	inconclusive: 14.6 µM [inhibitor, partial curve, poor fit]
O=C1c2ccccc2S(=O)(=O)N1Cc1nc2ccccc2s1	active: 1 µM
COc1ccc(N(C)S(=O)(=O)c2cccc(C(=O)Nc3ccc4c(c3)OCCO4)c2)cc1	inconclusive: 22.4 µM [inhibitor, partial curve, poor fit]
Cc1cccc(NC(=O)C2CCN(S(=O)(=O)c3c(C)noc3/C=C/c3ccco3)CC2)n1	inactive
CN1CCc2nc(NC(=O)COc3ccc4ccccc4c3)sc2C1	inconclusive: 10 µM [inhibitor, partial curve, poor fit]

Two entries picked at random from those above:
SMILES	Potency
COc1ccc(N(C)S(=O)(=O)c2cccc(C(=O)Nc3ccc4c(c3)OCCO4)c2)cc1	inconclusive: 22.4 µM [inhibitor, partial curve, poor fit]
Cc1cccc(NC(=O)C2CCN(S(=O)(=O)c3c(C)noc3/C=C/c3ccco3)CC2)n1	inactive

More results:

SMILES	Potency
CN1CCN(c2ccc([N+](=O)[O-])cc2C(=O)N2CCOCC2)CC1	inactive
Cc1ccc(NC(=S)Nc2cccc3cnccc23)cc1C	inconclusive: 35.5 µM [inhibitor, single point]
COc1ccc(CNC(=O)C(c2ccco2)N(C(=O)c2snc(C(N)=O)c2N)c2cccc(OC)c2)cc1 (stereo not given)	inconclusive: 20 µM [inhibitor, partial curve, poor fit]
O=C(CC1SC(=Nc2ccccc2)N(CCc2c[nH]c3ccccc23)C1=O)Nc1ccccc1F (stereo not given)	inconclusive: 22.4 µM [inhibitor, partial curve, poor fit]
c1ccc(-c2nc(-c3ccncc3)n[nH]2)nc1	inconclusive: 10 µM [activator, partial curve, poor fit]
CCn1ccnc1CN(C)C(=O)c1cc(COc2ccc(OC)c3ccccc23)on1	inconclusive: 35.5 µM [inhibitor, single point]
CCOC(=O)C1=C(COC(=O)/C=C/c2ccc(SC)cc2)NC(=O)NC1C (stereo not given)	inconclusive: 1.58 µM [inhibitor, partial curve, poor fit]
CC(C)(C)NC(=O)CSc1nc2ccc(NC(=O)CSc3nnnn3Cc3ccccc3)cc2s1	inconclusive: 7.08 µM [inhibitor, partial curve, poor fit]
O=C(CSc1ccc(-c2ccco2)nn1)c1cccc([N+](=O)[O-])c1	inactive
C=CCNC(=S)N/N=C/c1ccc(C)cc1C	inconclusive: 7.08 µM [inhibitor, partial curve, poor fit]
O=C(CCN1C(=O)S/C(=C\c2ccccc2)C1=O)Nc1ccc(S(=O)(=O)Nc2nccs2)cc1	inactive
Cc1ccc(-c2noc(CSc3nnc(-c4ccncc4)n3-c3ccc(F)cc3)n2)cc1	inconclusive: 0.146 µM [inhibitor, partial curve, poor fit]
CCN(c1ccccc1)c1cc2ccccc2c(=O)[nH]1	inactive
Cc1nc(SCC(=O)Nc2c(C)nn(C)c2C)c2cnn(-c3ccccc3)c2n1	inconclusive: 13 µM [inhibitor, partial curve, poor fit]
Nc1nonc1C(=O)N/N=C/c1cc(Br)ccc1O	inconclusive: 7.08 µM [inhibitor, partial curve, poor fit]
Cc1cc(Nc2ncc(Cl)cc2Cl)n(-c2ccccc2C)n1	inconclusive: 18.4 µM [inhibitor, partial curve, poor fit]
Cc1ccc(C)c(Nc2ncnc3onc(C)c23)c1	inconclusive: 6.31 µM [activator, single point]
c1ccc(Nc2nnc(-c3cccnc3)s2)cc1	inconclusive: 0.891 µM [activator, partial curve, poor fit]
O=C(CSCc1cccc(F)c1)N1CCN(c2ccccc2)CC1	inactive
O=C(Cc1ccccc1)c1ccccn1	inactive
COC(=O)c1sc(NC(=O)c2oc3ccccc3c2C)nc1C	inconclusive: 0.447 µM [activator, single point]
COC(=O)C(CCSC)NC(=O)CNS(=O)(=O)c1ccc(Br)cc1 (stereo not given)	inactive
Cc1cc(C(=O)N/N=C2\CCCC(=O)C2)c(C)n1-c1ccccc1	inconclusive: 3.55 µM [inhibitor, single point]
CCOC(=O)c1sc(NC(=O)CSc2nnnn2-c2ccccc2)nc1C	inconclusive: 29.1 µM [inhibitor, single point]

SMILES	Potency
Cc1cc(=O)n(CC(=O)NCCN2CCOCC2)c2c1c(C)nn2-c1ccccc1	inactive
COc1ccc(-c2nc3ccccc3n2OC(=O)N(C)C)cc1	inactive
O=C(Nc1nnc(C2CC2)s1)C1COc2ccccc2O1 (stereo not given)	inconclusive: 12.6 µM [inhibitor, partial curve, poor fit]
CCOc1ccccc1CNCc1c(C(=O)O)c(C)n(Cc2ccc(Cl)cc2)c1C	inconclusive: 2.51 µM [inhibitor, partial curve, poor fit]
CCN(Cc1ccccc1)Cc1c(O)ccc2c(=O)c(-c3ccccc3)c(C(F)(F)F)oc12	inconclusive: 20 µM [inhibitor, single point]
COc1ccc(C(=O)O/N=C(\N)Cc2ccc(Cl)cc2Cl)cc1OC	active: 20 µM
CC(C(=O)Nc1ccc(OCc2ccccc2)cc1)N1CCCC1 (stereo not given)	inactive
O=C(OCC(=O)N1CCCCC1)c1c[nH]c2ccccc12	inactive
Cc1ccc(OCC(=O)OCc2cc(=O)n3nc(C4CCCCC4)sc3n2)cc1C	inactive
CCC1CN(C(=O)N2CCC(C(=O)NCCc3ccccc3C)CC2)c2ccccc2O1 (stereo not given)	inconclusive: 3.98 µM [inhibitor, full curve]
Cc1ccc(C(OCCN(C)C)c2cccc(C(F)(F)F)c2)cc1 (stereo not given)	inconclusive: 32.6 µM [inhibitor, single point]
O=C(NCCSCc1cccc(Cl)c1)C1CCN(S(=O)(=O)Cc2ccccc2)CC1	inactive
COc1ccc(N(C(C)C(=O)NC2CCCCCC2)S(C)(=O)=O)cc1 (stereo not given)	inconclusive: 18.3 µM [inhibitor, single point]
c1ccc(-c2nnc(CN3CCN(c4ccccn4)CC3)o2)cc1	inactive
NC1=NC(c2ccc([N+](=O)[O-])cc2)N(c2ccc(F)cc2)C(N)=N1 (stereo not given)	inactive
CNC(=O)c1ccsc1NC(=O)c1ccc2c(c1)CCCC2	inconclusive: 2.06 µM [activator, partial curve]
CCCCN(CCCNC(=O)c1ccc2nc(N3CCOCC3)sc2c1)Cc1ccccc1	inconclusive: 29.1 µM [inhibitor, single point]
Cc1ccc(CN(CC(=O)NC(C)(C)C)C(=O)CNC(=O)c2cccs2)cc1	inactive
CCC(CC)NC(=O)/C=C/c1ccccc1Cl	inconclusive: 3.55 µM [activator, single point]
CCN(CC)c1ccc(CN(C(=O)Cc2coc3ccc(C)cc23)C2CCS(=O)(=O)C2)cc1 (stereo not given)	inconclusive: 22.4 µM [inhibitor, single point]
CCOc1cccc(CC(=O)N2CCc3c([nH]c4ccccc34)C2c2ccccc2)c1OCC (stereo not given)	inconclusive: 8.91 µM [inhibitor, partial curve]
Cc1cc2cc(CNC(=O)Cc3ccc([N+](=O)[O-])cc3)ccc2n1C	inconclusive: 6.31 µM [inhibitor, single point]

An excerpt of these results, bar-delimited:
SMILES | Potency
Cc1ccc(CN(CC(=O)NC(C)(C)C)C(=O)CNC(=O)c2cccs2)cc1 | inactive
CCC(CC)NC(=O)/C=C/c1ccccc1Cl | inconclusive: 3.55 µM [activator, single point]
CCN(CC)c1ccc(CN(C(=O)Cc2coc3ccc(C)cc23)C2CCS(=O)(=O)C2)cc1 (stereo not given) | inconclusive: 22.4 µM [inhibitor, single point]
